Measured values taken from PubChem BioAssay AID901 (National Center for Advancing Translational Sciences (NCATS), 2007).
The other results are listed elsewhere or left out. The main result of the screen is listed elsewhere. These columns were measured beside it and carry no call. The list favours compounds with an active or inconclusive main result. Words in brackets tell the shape of the fitted curve; partial curves, single points and poor fits give uncertain potencies.

Experiment: qHTS Assay for Identifying the Cell-Membrane Permeable IMPase Inhibitors
Details: CHO-M1 cells, IP1 accumulation, HTRF TR-FRET ratio; measured here: donor channel 620 nm AC50

SMILES	AC50
COc1ccc2nc(C)cc(Nc3ccc(Cl)c(Cl)c3)c2c1	25100 nM [falling, single point]
C=CCn1c(=O)c(C(=O)NCCc2ccccc2)c(O)c2ccccc21	15800 nM [falling, partial curve]
CCOc1ccc(C2C(=O)N(C3CCCCC3)CC(=O)N2CC2CCCO2)cc1OC (stereo unspecified)	31600 nM [falling, single point]
N=c1oc2ccccc2cc1-c1nc2ccccc2c(=O)[nH]1	31600 nM [rising, single point]
O=C(C1CCCN(S(=O)(=O)c2ccc(Br)s2)C1)N1CCN(c2ccccc2F)CC1 (stereo unspecified)	31600 nM [falling, single point]
Nc1nnnn1/N=C/c1cccc(OCc2ccccc2Cl)c1	200 nM [falling, single point]
Cc1nnc(NC(=O)CSc2nc(C(C)C)nc3ccccc23)s1	5620 nM [rising, single point]
Brc1ccc2ncnc(NCc3ccccc3)c2c1	501 nM [falling, full curve, poor fit]
O=C(Cc1coc(-c2ccc(F)cc2)n1)N1CCOCC1	6310 nM [falling, single point]
CCC(=Nc1ccc(N)cc1)C1=C(O)C(C(=O)OC)C(C)(C)CC1=O (stereo unspecified)	12600 nM [falling, partial curve]
O=C(O)c1ccc(NC(=O)c2ccc(Br)c(S(=O)(=O)N3CCCC3)c2)cc1	15800 nM [falling, single point]
Cn1c(C(=O)OCC(=O)NCc2cccs2)cc2sccc21	316 nM [rising, full curve, poor fit]
Cc1cccc(CN2C(=O)N/C(=C/c3cc(C)n(-c4cc(C)ccn4)c3C)C2=O)c1	31.6 nM [falling, full curve, poor fit]
CCS(=O)(=O)Nc1ccc(-c2nnc(SCC(=O)c3cccc(OC)c3)o2)cc1	1000 nM [falling, full curve, poor fit]
CN(c1cccc(NC(=O)Nc2ccc(Cl)cc2)c1)S(C)(=O)=O	3.98 nM [rising, full curve, poor fit]
CC(=O)CC(C)(C)S(=O)(=O)c1ccc(Oc2ccc(S(=O)(=O)C(C)(C)CC(C)=O)cc2)cc1	316 nM [falling, single point]
Cc1cc(NC(=O)CSc2nnc(CNc3ccc(F)cc3)n2C2CCCCC2)no1	501 nM [falling, partial curve]
Cc1ccc(Cl)cc1NC(=O)CSc1nnc(C)n1-c1ccccc1	79.4 nM [rising, full curve]
CCNC(=O)CC1SC(=Nc2ccccc2C)N(C)C1=O (stereo unspecified)	25.1 nM [falling, full curve]
O=S(=O)(c1ccccc1)c1nc(-c2ccccc2F)oc1N1CCOCC1	3550 nM [falling, single point]
COCCCNC(=O)Cn1nnc(-c2ccc(NC(=O)c3ccc(F)cc3)cc2)n1	79.4 nM [falling, full curve, poor fit]
CC(=O)c1c(COC(=O)c2ccncc2)nc2ccccc2[n+]1[O-]	794 nM [falling, full curve, poor fit]

Grouped by structure: those above with an aryl methoxy group
SMILES	AC50
COc1ccc2nc(C)cc(Nc3ccc(Cl)c(Cl)c3)c2c1	25100 nM [falling, single point]
CCOc1ccc(C2C(=O)N(C3CCCCC3)CC(=O)N2CC2CCCO2)cc1OC (stereo unspecified)	31600 nM [falling, single point]
CCS(=O)(=O)Nc1ccc(-c2nnc(SCC(=O)c3cccc(OC)c3)o2)cc1	1000 nM [falling, full curve, poor fit]

Following part:

SMILES	AC50
Cc1cc(NCCCN2CCOCC2)n2ncc(-c3ccccc3)c2n1	631 nM [rising, full curve, poor fit]
CC(=O)C(C)Oc1ccc2c3c(c(=O)oc2c1C)CCCC3 (stereo unspecified)	2510 nM [falling, full curve, poor fit]
Cc1nc2ccccc2c2oc(C(=O)NCCCN3CCCC3=O)cc12	35500 nM [falling, single point]
O=C(c1ccccc1)N1CCN(CC2CC=CCC2)CC1 (stereo unspecified)	2240 nM [falling, full curve, poor fit]
COc1ccnc(N2CCN(c3ccccc3)CC2)c1C#N	6310 nM [falling, single point]
COc1ccc(NC(=O)C2CCCN2C(=O)NCc2ccccc2)cc1OC (stereo unspecified)	1580 nM [rising, partial curve, poor fit]
Cc1c(C(=O)O)sc2ncnc(N3CCCCC3C)c12 (stereo unspecified)	15800 nM [rising, single point]
COc1ccc(C2c3c(-c4ccc(F)cc4)n[nH]c3C(=O)N2c2ccccc2)cc1OC (stereo unspecified)	282 nM [falling, full curve, poor fit]
Clc1ccccc1Oc1cnc2ccccc2n1	3.98 nM [rising, full curve, poor fit]
CCOC(=O)C1CCCN(C(=O)CNS(=O)(=O)c2ccc(Br)s2)C1 (stereo unspecified)	25100 nM [falling, single point]
O=C(Nc1c(C(=O)C2CC2)oc2ccccc12)c1ccc(Cl)cc1	5620 nM [rising, single point]
CC1CCN(S(=O)(=O)c2cn(CC(=O)Nc3ccc(F)cc3)c(=O)c3ccccc23)CC1	35500 nM [rising, single point]
O=c1cc(-c2cccc(O)c2)oc2c(O)c(O)ccc12	25100 nM [falling, partial curve, poor fit]
COC(=O)c1cccc(NC(=O)c2ccco2)c1	501 nM [falling, full curve]
Cc1cc(C)n2c(Nc3cccc(C(F)(F)F)c3)c(-c3ccsc3)nc2n1	141 nM [falling, full curve, poor fit]
O=C(c1ccc(Cl)c(S(=O)(=O)N2CCOCC2)c1)N1CCN(Cc2ccccc2)CC1	158 nM [falling, full curve, poor fit]
O=c1[nH]c2cc(Cl)ccc2c(O)c1-c1ccc(Oc2ccccc2)cc1	2.51 nM [rising, full curve, poor fit]
CCc1nnc(NC(=O)CSc2nc3c(cc2C#N)CCCC3)s1	31600 nM [rising, single point]
CC(=O)c1cccc(N=C2C(=O)Nc3ccccc32)c1	3980 nM [rising, single point]
COc1ccc(Cn2c(-c3ccc(OC)cc3)nc3c(c(=O)c4ccccc4n3C)c2=O)cc1	28200 nM [rising, single point]
CC1=C(C(N)=O)C(c2ccncc2)n2nc(-c3ccccc3Cl)nc2N1 (stereo unspecified)	355 nM [rising, single point]
Cc1cc(N2C(=O)C(O)=C(C(=O)c3ccc(C)o3)C2c2cccs2)no1 (stereo unspecified)	15800 nM [rising, partial curve]

SMILES	AC50
CCCC(=O)Nc1ccc(-c2nc3cc(C)c(C)cc3o2)c(O)c1	3160 nM [falling, single point]
O=C(CN1CCN(S(=O)(=O)c2ccc(F)cc2)CC1)Nc1cc(C(F)(F)F)ccc1Cl	12.6 nM [rising, full curve, poor fit]
CCN(CC)S(=O)(=O)c1ccc(OC)c(NC(=O)COc2ccc3c(C)cc(=O)oc3c2)c1	35500 nM [rising, partial curve]
CCC1CCCCN1C(=O)Cn1c(=O)n(CCC(=O)NCc2ccco2)c(=O)c2sccc21 (stereo unspecified)	398 nM [rising, full curve, poor fit]
COc1ccc(C(=O)NC2CCN(CC(=O)Nc3cccc(C)c3)CC2)cc1OC	200 nM [rising, single point]
CCOc1ccc(-c2nnn(CC(=O)NCc3cccs3)n2)cc1	1260 nM [rising, full curve, poor fit]
COc1ccc2c(c1)CCCC21NC(=O)NC1=O (stereo unspecified)	5010 nM [rising, single point]
COc1ccc(C2=CC(c3ccc(OC)c(OC)c3)NC(=S)N2)cc1 (stereo unspecified)	50.1 nM [rising, partial curve, poor fit]
O=[N+]([O-])c1ccc(N2CCCC2)cc1NC(c1ccccc1)c1ccccc1	794 nM [rising, full curve, poor fit]
Cc1c(O)c(CN2CCCC2)cc2c3c(c(=O)oc12)CCC3	12600 nM [falling, single point]
O=C1CC(N2CCCc3ccccc32)C(=O)N1c1ccccc1Cl (stereo unspecified)	31600 nM [falling, single point]
CCc1c(C)c2cc(Cl)c(O)c(CN(CC)CC)c2oc1=O	3160 nM [rising, single point]
COC(=O)c1ccc(CSc2nnc3c(Cl)cc(Cl)cn23)o1	89.1 nM [falling, full curve, poor fit]
O=C(NCc1cccnc1)NC1(C(F)(F)F)Oc2ccccc2O1	158 nM [falling, full curve, poor fit]
O=C1C2CCCN2C(c2ccccc2)N1c1ccc(Cl)cc1 (stereo unspecified)	631 nM [rising, partial curve]
Cc1nnsc1NC(=O)OCC(C)(C)C	12.6 nM [rising, full curve, poor fit]
COc1ccc(Cl)cc1C(=O)NCC(C)C	3160 nM [falling, full curve]
CCc1ccc(C(C)NC(=O)Cn2cnc3c(=O)n(C)c(=O)n(C)c32)cc1 (stereo unspecified)	15800 nM [falling, single point]
COc1ccc(C(NC(=O)c2cccc(F)c2)c2ccccc2)cc1 (stereo unspecified)	141 nM [falling, full curve, poor fit]
CCOC(=O)C1=NN(c2ccc(Cl)cc2)C(c2ccccc2)CC1=O (stereo unspecified)	1000 nM [falling, full curve]
CC(=O)Nc1c(C#N)c(C(C)(C)C)cn1C	562 nM [falling, full curve]
COc1ccc(OC)c(NC(=O)C(=O)/C=C(\O)c2cc(OC)ccc2OC)c1	3980 nM [rising, full curve, poor fit]
